# PubChem BioAssay AID1224830, NIAID – 2016
# Aim: 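Host factors that control LPS-induced TNF expression in human macrophages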 (primary screen)
# Cells: human THP-1 monocytic leukaemia cells, TNF dual-luciferase reporter clone, PMA-differentiated to macrophage-like cells
# Knock-down reagent: siRNA pool against human genes, 50 nM
# Duration: LPS for 4 h, given about 3 days after siRNA transfection
# Challenge: bacterial LPS (TLR4 ligand), 10 ng/ml
# Read-out: 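TNF firefly reporter luminescence divided by renilla, normalised to the plate median, then turned into a robust z-score for each replicate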
# Scale: TNF reporter robust z-score: higher = stronger TNF reporter response to LPS
# Rule for the call: 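Each well counts as active if its z-score is over 2.8 or under -1.5; controls are left without a call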
# The whole screen tested about 18,000 reagents; shown is an unselected part. About 2,900 of them (16%) were called active. 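Calls are made per well; low scores hint the gene aids the LPS response, high scores that it dampens it.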 Repeated entries: four replicate wells of each siRNA pool.
Gene,PubChem SID,TNF reporter robust z-score,Outcome
INPP4A,SID315449513,-0.57,inactive
INPP4A,SID315449513,0.05,inactive
INPP4A,SID315449513,-0.22,inactive
INPP4A,SID315449513,-0.53,inactive
JAM2,SID315458635,-0.46,inactive
JAM2,SID315458635,0.37,inactive
JAM2,SID315458635,-0.63,inactive
JAM2,SID315458635,0.31,inactive
PLEKHG2,SID315459029,0.18,inactive
PLEKHG2,SID315459029,-0.02,inactive
PLEKHG2,SID315459029,0.38,inactive
PLEKHG2,SID315459029,0.12,inactive
MROH5,SID315464572,2.12,inactive
MROH5,SID315464572,3.25,active
MROH5,SID315464572,-0.86,inactive
MROH5,SID315464572,0.26,inactive
TRAF3IP2,SID315454340,0.16,inactive
TRAF3IP2,SID315454340,2.02,inactive
TRAF3IP2,SID315454340,1.32,inactive
TRAF3IP2,SID315454340,1.81,inactive
GCNT1,SID315448867,0.32,inactive
GCNT1,SID315448867,1.54,inactive
GCNT1,SID315448867,1.43,inactive
GCNT1,SID315448867,1.06,inactive
TRO,SID315451977,-0.39,inactive
TRO,SID315451977,-0.03,inactive
TRO,SID315451977,-0.25,inactive
LMF2,SID315460897,0.17,inactive
LMF2,SID315460897,-0.01,inactive
LMF2,SID315460897,0.77,inactive
LMF2,SID315460897,-0.21,inactive
GALNTL6,SID315464963,-0.81,inactive
GALNTL6,SID315464963,-0.61,inactive
GALNTL6,SID315464963,-0.31,inactive
GALNTL6,SID315464963,-0.36,inactive
GTF2H1,SID315449096,-0.01,inactive
GTF2H1,SID315449096,-0.2,inactive
GTF2H1,SID315449096,0.11,inactive
GTF2H1,SID315449096,-0.27,inactive
TRIM23,SID315447381,-0.01,inactive
TRIM23,SID315447381,2.29,inactive
TRIM23,SID315447381,0.37,inactive
TRIM23,SID315447381,0.31,inactive
SLC25A3,SID315450557,-1.08,inactive
SLC25A3,SID315450557,-0.28,inactive
SLC25A3,SID315450557,-0.13,inactive
SLC25A3,SID315450557,-0.9,inactive
PLEKHA8,SID315460485,-0.49,inactive
PLEKHA8,SID315460485,-0.64,inactive
PLEKHA8,SID315460485,-0.63,inactive
TRAPPC6B,SID315461548,0.52,inactive
TRAPPC6B,SID315461548,1.03,inactive
TRAPPC6B,SID315461548,-0.45,inactive
TRAPPC6B,SID315461548,-0.59,inactive
LCE3B,SID315464276,-0.47,inactive
LCE3B,SID315464276,0.4,inactive
LCE3B,SID315464276,-0.58,inactive
LCE3B,SID315464276,-0.49,inactive
TBX15,SID315451773,0.01,inactive
TBX15,SID315451773,1.29,inactive
TBX15,SID315451773,0.65,inactive
HOXB6,SID315449281,0.9,inactive
HOXB6,SID315449281,1.2,inactive
HOXB6,SID315449281,1.18,inactive
HOXB6,SID315449281,1.84,inactive
BBS9,SID315455988,2.34,inactive
BBS9,SID315455988,1.7,inactive
BBS9,SID315455988,2.66,inactive
BBS9,SID315455988,-0.56,inactive
CBLC,SID315455375,-0.32,inactive
CBLC,SID315455375,5.04,active
CBLC,SID315455375,0.61,inactive
CBLC,SID315455375,0.38,inactive
SERINC5,SID315463543,0.12,inactive
SERINC5,SID315463543,0.25,inactive
SERINC5,SID315463543,1.46,inactive
PRRX2,SID315456719,0.16,inactive
PRRX2,SID315456719,3.68,active
PRRX2,SID315456719,1.25,inactive
PRRX2,SID315456719,1.11,inactive
AVP,SID315447495,1.76,inactive
AVP,SID315447495,3.61,active
AVP,SID315447495,5.16,active
AVP,SID315447495,2.56,inactive
ZBTB38,SID315463418,-0.21,inactive
ZBTB38,SID315463418,0.89,inactive
ZBTB38,SID315463418,0.65,inactive
ZBTB38,SID315463418,1.06,inactive
MBD6,SID315461236,-0.39,inactive
MBD6,SID315461236,13.9,active
MBD6,SID315461236,-0.44,inactive
MBD6,SID315461236,-0.82,inactive
LDLRAD1,SID315464506,0.29,inactive
LDLRAD1,SID315464506,1.4,inactive
LDLRAD1,SID315464506,1.7,inactive
LDLRAD1,SID315464506,-0.02,inactive
FKBP7,SID315456835,0.03,inactive
FKBP7,SID315456835,1.66,inactive
FKBP7,SID315456835,1.83,inactive
FKBP7,SID315456835,3.84,active
MTMR14,SID315458922,-0.06,inactive
MTMR14,SID315458922,-1.04,inactive
MTMR14,SID315458922,0,inactive
MTMR14,SID315458922,-0.01,inactive
LILRA5,SID315464298,-0.67,inactive
LILRA5,SID315464298,-0.62,inactive
LILRA5,SID315464298,-1.05,inactive
LILRA5,SID315464298,-1.11,inactive
EDA2R,SID315458701,0.09,inactive
EDA2R,SID315458701,0.86,inactive
EDA2R,SID315458701,0.45,inactive
EDA2R,SID315458701,1.73,inactive

17 entries from above in another layout.
{"Gene": "SLC25A3", "PubChem SID": "SID315450557", "TNF reporter robust z-score": -0.13, "Outcome": "inactive"}
{"Gene": "SLC25A3", "PubChem SID": "SID315450557", "TNF reporter robust z-score": -0.9, "Outcome": "inactive"}
{"Gene": "PLEKHA8", "PubChem SID": "SID315460485", "TNF reporter robust z-score": -0.49, "Outcome": "inactive"}
{"Gene": "PLEKHA8", "PubChem SID": "SID315460485", "TNF reporter robust z-score": -0.64, "Outcome": "inactive"}
{"Gene": "PLEKHA8", "PubChem SID": "SID315460485", "TNF reporter robust z-score": -0.63, "Outcome": "inactive"}
{"Gene": "TRAPPC6B", "PubChem SID": "SID315461548", "TNF reporter robust z-score": 0.52, "Outcome": "inactive"}
{"Gene": "TRAPPC6B", "PubChem SID": "SID315461548", "TNF reporter robust z-score": 1.03, "Outcome": "inactive"}
{"Gene": "TRAPPC6B", "PubChem SID": "SID315461548", "TNF reporter robust z-score": -0.45, "Outcome": "inactive"}
{"Gene": "TRAPPC6B", "PubChem SID": "SID315461548", "TNF reporter robust z-score": -0.59, "Outcome": "inactive"}
{"Gene": "LCE3B", "PubChem SID": "SID315464276", "TNF reporter robust z-score": -0.47, "Outcome": "inactive"}
{"Gene": "LCE3B", "PubChem SID": "SID315464276", "TNF reporter robust z-score": 0.4, "Outcome": "inactive"}
{"Gene": "LCE3B", "PubChem SID": "SID315464276", "TNF reporter robust z-score": -0.58, "Outcome": "inactive"}
{"Gene": "LCE3B", "PubChem SID": "SID315464276", "TNF reporter robust z-score": -0.49, "Outcome": "inactive"}
{"Gene": "TBX15", "PubChem SID": "SID315451773", "TNF reporter robust z-score": 0.01, "Outcome": "inactive"}
{"Gene": "TBX15", "PubChem SID": "SID315451773", "TNF reporter robust z-score": 1.29, "Outcome": "inactive"}
{"Gene": "TBX15", "PubChem SID": "SID315451773", "TNF reporter robust z-score": 0.65, "Outcome": "inactive"}
{"Gene": "HOXB6", "PubChem SID": "SID315449281", "TNF reporter robust z-score": 0.9, "Outcome": "inactive"}
